Results published in patent US7001748.

T1: acyl-ACP4(4) adduct 4a ((2S,3R)-diketide on ACP4(4)), Q03132
T1 chain: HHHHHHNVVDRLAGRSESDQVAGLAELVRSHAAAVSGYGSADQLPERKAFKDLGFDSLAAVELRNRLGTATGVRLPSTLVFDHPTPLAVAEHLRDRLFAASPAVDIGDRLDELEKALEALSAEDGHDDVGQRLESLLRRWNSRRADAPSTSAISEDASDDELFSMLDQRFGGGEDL

T2: acyl-ACP4(4) adduct 4b ((2R,3S)-diketide on ACP4(4)), Q03132
T2 chain: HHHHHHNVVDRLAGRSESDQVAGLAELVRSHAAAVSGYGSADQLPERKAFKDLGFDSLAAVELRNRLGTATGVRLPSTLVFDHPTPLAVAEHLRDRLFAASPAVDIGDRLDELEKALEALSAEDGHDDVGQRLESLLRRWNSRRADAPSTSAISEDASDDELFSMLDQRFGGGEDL

T3: acyl-ACP4(4) adduct 4c ((2S,3S)-diketide on ACP4(4)), Q03132
T3 chain: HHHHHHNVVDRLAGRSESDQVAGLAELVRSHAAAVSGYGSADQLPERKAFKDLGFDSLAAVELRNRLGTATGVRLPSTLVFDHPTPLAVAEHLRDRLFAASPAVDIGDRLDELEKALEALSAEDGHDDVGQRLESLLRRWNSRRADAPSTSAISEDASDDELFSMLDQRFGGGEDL

T4: acyl-ACP4(4) adduct 4d ((2R,3R)-diketide on ACP4(4)), Q03132
T4 chain: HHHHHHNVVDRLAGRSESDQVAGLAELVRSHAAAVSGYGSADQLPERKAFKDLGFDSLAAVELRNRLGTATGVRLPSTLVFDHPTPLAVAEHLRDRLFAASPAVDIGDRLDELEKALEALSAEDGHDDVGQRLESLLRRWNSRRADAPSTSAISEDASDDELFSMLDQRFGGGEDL


Experiments:
[1] = biological target: T1, acyl-ACP4(4) adduct 4a …
[2] = biological target: T2, acyl-ACP4(4) adduct 4b …
[3] = biological target: T3, acyl-ACP4(4) adduct 4c …
[4] = biological target: T4, acyl-ACP4(4) adduct 4d …
[5] = biological target: acyl-ACP4(4) adducts (4), member not specified

Protein | diketide incorporation from acyl-ACP (triketide lactone formation) [1] | diketide incorporation from acyl-ACP (triketide lactone formation) [2] | increase of the elongation rate constant (kcat) with 4b against NAC thioester 2b [2] | diketide incorporation from acyl-ACP (triketide lactone formation) [3] | diketide incorporation from acyl-ACP (triketide lactone formation) [4] | conversion of the acyl-ACP into triketide lactone in 1 h (20 µM 4 and 1 µM (5)M5+TE) [5]
(5)M5+TE (M5+TE; plasmid pRSG46) (protein) SGDNGMTEEKLRRYLKRTVTELDSVTARLREVEHRAGEPIAIVGMACRFPGDVDSPESFWEFVSGGGDAIAEAPADRGWEPDPDARLGGMLAAAGDFDAGFFGISPREALAMDPQQRIMLEISWEALERAGHDPVSLRGSATGVFTGVGTVDYGPRPDEAPDEVLGYVGTGTASSVASGRVAYCLGLEGPAMTVDTACSSGLTALHLAMESLRRDECGLALAGGVTVMSSPGAFTEFRSQGGLAADGRCKPFSKAADGFGLAEGAGVLVLQRLSAARREGRPVLAVLAGSAVNQDGASNGLTAPSGPAQQRVIRRALENAGVRAGDVDYVEAHGTGTRLGDPIEVHALLSTYGAERDPDDPLWIGSVKSNIGHTQAAAGVAGVMKAVLALRHGEMPRTLHFDEPSPQIEWDLGAVSVVSQARSWPAGERPRRAGVSSFGISGTNAHVIVEEAPEADEPEPAPDSGPVPLVLSGRDEQAMRAQAGRLADHLAPEPRNSLRDTGFTLATRASAMEHRAVVVGDRDEALAGLRAVADRRIADRTATGQGPNSPRRVAMVFPGQGAQWQGMARDLLRESQVFADSIRDCERALAPHVDWSLTDLLSGARPLDRVDVVQPALFAVMVSLAALWRSHGVEPAAVVGHSQGEIAAAHVAGALTLEDAAKLVAVRSRVLRRLGGQGGMASFGLGTEQAAERIGRFAGALSIASVNGPRSVVVVAGESGPLDELIAECEAEAHKARRIPVDYASHSPQVESLREELLTELAGISPVSADVALYSTTTGQPIDTATMDTAYWYANLREQVRFQDATRQLAEAGFDAFVEVSPHPVLTVGIEATLDSALPADAGACVVGTLRRDRGGLADFHTALGEAYAQGVEVDWSPAFADARPVELPVYPFQRYWLPIPTGGRARDEDDDWRYQVVWREAEWESASLAGRVLLVTGPGVPSELSDAIRSGLEQSGATVLTCDVESRSTIGTALEAADTDALSTVGVAAVPHGEAVDPSLDALALVQALGAAGVEAPLWVLTRNAVQVADGELVDPAQAMVGGLGRVVGIEQPGRWGGLVDLVDADAASIRSLAAVLADPRGEEQVAIRADGIKVARLVPAPARARTHPLEPLAGTVLVTGGTGGIGAHLARWLARSGAEHLVLLGRRGADAPGASELREELTALGTGVTIAACDVADRARLEAVLAAEAAAEGRTVSAVMHAAGVSTSTPLDDLTEAEFTEIADVKVRGTVNLDELCPDLDAFVLFSSNAGVWGSPGLASYAAANAFLDGFARAARSEGAPVTSIAWGLWAGQNMAGDEGGEYLRSQGLRAMDPDRAVEELHITLDHGQTSVSVVDMDRRRFVELFTAARHRPLFDEIAGARAEARQSEEGPALAQRLAALLCDGREREHLAHLIRAEVAAVLGHGDDAAIDRDRAFRDLGFDSMTAVDLRNRLAAVTGVREAATVVFDHPTITRLADHYLERLICCAGTAAISGPHEFTRLAGALRGIAPVRAVPQPGYEEGEPLPSSMAAVAAVQADAVIRTQGDKPFVVAGHSAGALMAYALATELLDRGHPPRGVVLIDVYPPGHQDAMNAWLEELTATLFDRETVRMDDTRLTALGAYDRLTGQWRPRETGLPTLLVSAGEPMGPWPDDSWKPTWPFEHDTVAVPGDHFTMVQEHADAIARHIDAWHHHHHH | Both 4a and 4b were accepted and extended by all three modules | Both 4a and 4b were accepted and extended by all three modules | the elongation rate constant (kcat) increases at least 25-fold | 4c and 4d were also substrates for the three modules | 4c and 4d were also substrates for the three modules | 70% of the acyl-ACP was converted into triketide lactone in 1 h
(5)M6+TE (N-ERL-M6+TE; plasmid pRSG54) (protein) MSGDNGMTEEKLRRYLKRTVTELDSVTARLREVEHRAGEAIVGMACRFPGGVHNPGELWEFIVGGGDAVTEMPTDRGWDLDALFDPDPQRHGTSYSRHGAFLDGAADFDAAFFGISPREALAMDPQQRQVLETTWELFENAGIDPHSVRGSDTGVFLGAAYQGYGQDAVVPEDSEGYLLTGNSSAVVSGRVAYVLGLEGPAVTVDTACSSSLVALHSACGSLRDGDCGLAVAGGVSVMAGPEVFTEFSRQGGLAVDGRCKAFSAEADGFGLPEGVAVVQLQRLSDGPAEGGRQVLGVVAGSAINQDGATNGLAAPSGVAQQRVIRKAWARAGITGADVAVVEAHGTGTRLGDPVEASALLATYGKSRGSSGPVLLGSVKSNIGHAQAAAGVAGVIKVVLGLNRGLVPPMLCRGERSPLIEWSSGGVELAEAVSPWPPAADGVRRAGVSAFGVSGTNAHVIIAEPPEPEPLPEPGPVGVLAAANSVPVLLSARTETALAAQARLLESAVDDSVPLTALASALATGRAHLPRRAALLAGDHEQLRGQLRAVAEGVAAPGATTGTASAGGVVFVFPGQGAQWEGMARGLLSVPVFAESIAECDAVLSEVAGFSASEVLEQRPDAPSLERVDVVQPVLFSVMVSLARLWGACGVSPSAVIGHSQGEIAAAVVAGVLSLEDGVRVVALRAKALRALAGKGGMVSLAAPGERARALIAPWEDRISVAAVNSPSSVVVSGDPEALAELVARCEDEGVRAKTLPVDYASHSRHVEEIRETILADLDGISARRAAIPLYSTLHGERRDMGPRYWYDNLRSQVRFDEAVSAQSPDGHATFVEMSPHPVLTAAVQEIAADAVAIGSLHRDTAEEHLIAELARAHVHGVAVDWRNVFPAAPPVALPNYPFEPQRYWLAPEVSDQLADSRYRVDWRPLATTPVDLEGGFLVHGSAPESLTSAVEKAGGVVPVASADREALAAALREVPGEVAGVLSVHTGAANALALHQSLGEAGVRAPLWLVTSRAVALGESEPVDPEQAMVWGLGRVMGLETPERWGGLVDLPAEPAPGDGEAFVACLGADGHEDQVAIRDHARYGRRLVRAPLGTRESSWEPAGTALVTGGTGALGGHVARHLARCGVEDLVLVSRRGVDAPAAAELEAELVALGPKTTITACDVADREQLSKLLEELRGQGRPVRTVVHTAGVPESRPLHEIGELESVCAAKVTGARLLDELCPDAETFVLFSSGAGVWGSANLGAYSAANAYLDALAHRRRAEGRAATSVAWGAWAGEGMATGDLEGLTRRGLRPMAPDRAIRALHQALDNGDTCVSIADVDWEAFAVGFTAARPRPLLDELVTPAVGAVPAVQAAPAREMTSQELLEFTHSHVAAILGHSSPDAVGQDQPFTELGFDSLTAVGLRNQLQQATGLALPATLVFEHPTVRRLADHIGQQLDSGTPAREASSALRDGYRQAGVSGRVRSYLDLLAGLSDFREHFDGSDGFSLDLVDMADGPGEVTVICCAGTAAISGPHEFTRLAGALRGIAPVRAVPQPGYEEGEPLPSSMAAVAAVQADAVIRTQGDKPFVVAGHSAGALMAYALATELLDRGHPPRGVVLIDVYPPGHQDAMNAWLEELTATLFDRETVRMDDTRLTALGAYDRLTGQWRPRETGLPTLLVSAGEPMGPWPDDSWKPTWPFEHDTVAVPGDHFTMVQEHADAIARHIDAWLGGGNSHHHHHH | Both 4a and 4b were accepted and extended by all three modules | Both 4a and 4b were accepted and extended by all three modules | – | 4c and 4d were also substrates for the three modules | 4c and 4d were also substrates for the three modules | –
